Some test systems named below: GIMAP6 (human); GLYATL1 (human); GLYATL2 (human); GLYCTK (human); GMEB1 (human); GMFB (human); GNG13 (human); GNG4 (human); GNGT1 (human).
Common to all, as to experiment: protein microarray (ProtoArray v5.0), streptavidin-Alexa Fluor 647
What all share (settings): 3'-biotin; 20 mM Tris (pH 7.5), 5 mM MgCl2, 100 mM KCl, 0.1% Tween-20, A/T-rich and random oligonucleotide blockers; temperature not stated; high values mean tight binding

Sequences of proteins named here, by UniProt entry; tags and fusion partners are left off. A change or cut given only in a name is not applied to a line headed by its entry.
UniProt P09471: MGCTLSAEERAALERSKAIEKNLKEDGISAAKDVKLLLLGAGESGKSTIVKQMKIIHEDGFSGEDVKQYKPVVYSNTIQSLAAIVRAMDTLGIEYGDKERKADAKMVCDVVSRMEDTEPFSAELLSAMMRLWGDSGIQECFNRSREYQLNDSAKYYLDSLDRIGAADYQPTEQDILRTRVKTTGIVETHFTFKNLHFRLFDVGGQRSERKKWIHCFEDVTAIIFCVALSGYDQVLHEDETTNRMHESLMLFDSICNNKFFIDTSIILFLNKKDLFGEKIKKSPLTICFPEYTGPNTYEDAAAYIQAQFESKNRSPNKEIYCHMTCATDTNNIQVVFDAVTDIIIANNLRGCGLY

In the next assay the target is GNAO1 (UniProt P09471).

The other results are listed elsewhere or left out. For some of these results: The source does not settle which construct or isoform was used.

“GGTGACAGGGGTATGGGGAGGGG [G4-2 biotinylated (Ct1)]”: the binding signal was -0.387 z-score with GIMAP6 (human); -0.383 z-score in the assay with GLYATL1 (human); -0.363 z-score with GLYATL2 (human); -0.374 z-score in the assay on GLYCTK (human); -0.378 z-score with GMEB1 (human); -0.386 z-score with GMFB (human). For the same sequence, the binding signal is -0.369 z-score in the assay with GNAO1, -0.403 z-score in the assay with GNG13 (human), -0.38 z-score in the assay on GNG4 (human) and -0.384 z-score with GNGT1 (human).
